This assay addresses soluble recombinant human IL-6 receptor (human). Put plainly: Biacore affinity as referred to in the discussion of the monkey study.

Results are given in words; binding and its absence hold for the method and conditions named. Binding calls can cover weak binding; strength is not graded here.

B1: Fv5-M83 (antibody, human IgG1, kappa, V domains shown)
VH: QVQLQESGPGLVKPSETLSLTCAVSGYSISDDHAVSWVRQPPGEGLEWIGFISYSGITNYNPTLQDRVTISRDNSKNTLYLQMNSLRAEDTAVYYCARLLARATAMDVWGEGTLVTVSS
VL: DIQMTQSPSSLSASVGDSVTITCQASQDISSYLNWYQQKPGKAPELLIYYGSELESGVPSRFSGSGSGTDFTFTISSLEAEDAATYYCGQGNRLPYTFGQGTKVEIER
For the molecule B1, the binding entry is “binds”.

The values above are taken from patent WO2010106812A1.
